Data taken from PMC8440590.
These are yes or no findings as the source states them, for the method shown. Binding seen in cells or lysates may run through a third protein. Some entries that bind do so weakly or less than the wild type.

Protein sequences, listed by entry. Tags and fused reporters are not part of them. Residues count along the entry.
UniProt P31421, residues 19-872: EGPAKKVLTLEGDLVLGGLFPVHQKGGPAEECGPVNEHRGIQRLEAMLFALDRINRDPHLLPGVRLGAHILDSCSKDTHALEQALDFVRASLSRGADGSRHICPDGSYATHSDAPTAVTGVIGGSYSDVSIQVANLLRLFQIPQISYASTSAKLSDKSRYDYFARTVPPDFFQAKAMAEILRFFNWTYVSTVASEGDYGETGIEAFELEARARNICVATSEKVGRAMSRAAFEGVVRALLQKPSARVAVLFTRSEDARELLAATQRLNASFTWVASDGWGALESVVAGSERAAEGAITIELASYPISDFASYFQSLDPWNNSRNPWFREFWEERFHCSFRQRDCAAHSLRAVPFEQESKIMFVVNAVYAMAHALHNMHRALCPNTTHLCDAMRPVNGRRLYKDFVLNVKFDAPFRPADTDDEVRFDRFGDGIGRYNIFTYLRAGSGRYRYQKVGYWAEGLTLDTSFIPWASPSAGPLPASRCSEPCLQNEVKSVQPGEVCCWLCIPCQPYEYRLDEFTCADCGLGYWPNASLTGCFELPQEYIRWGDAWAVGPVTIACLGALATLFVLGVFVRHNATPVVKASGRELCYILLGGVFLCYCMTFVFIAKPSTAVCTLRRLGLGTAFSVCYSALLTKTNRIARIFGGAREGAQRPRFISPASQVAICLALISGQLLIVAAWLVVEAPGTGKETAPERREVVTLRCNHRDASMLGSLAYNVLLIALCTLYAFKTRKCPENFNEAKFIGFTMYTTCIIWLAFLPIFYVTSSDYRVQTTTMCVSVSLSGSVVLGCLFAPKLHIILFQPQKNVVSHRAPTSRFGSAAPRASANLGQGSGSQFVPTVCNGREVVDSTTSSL

Target: full-length rat mGlu2 (SNAP-sensor based on the rat receptor) (rat) (UniProt P31421)
Assay: FRET or BRET; intersubunit LRET between SNAP-tag labeled subunits (Lumi4-Tb donor, green acceptor) in microtiter plates, on crude membranes or after detergent solubilization (IGEPAL, DDM, LMNG, CHS, GDN mixtures), acquisition buffer pH 7.4, room temperature

binding: binds
Substance: full-length rat mGlu2 (SNAP-sensor based on the rat receptor) (from UniProt P31421 19-872)
